Reference: PubChem BioAssay AID1224830 (NIAID, 2016)
Here is a random part of about 18,000 deposited reagents. About 2,900 of them (16%) were called active. 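Calls are made per well; low scores hint the gene aids the LPS response, high scores that it dampens it.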 Entries without a mark were called inactive. Repeated entries: four replicate wells of each siRNA pool.

Test: 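Host factors that control LPS-induced TNF expression in human macrophages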 (primary screen)
Cells: human THP-1 monocytic leukaemia cells, TNF dual-luciferase reporter clone, PMA-differentiated to macrophage-like cells
Reagents: siRNA pool against human genes, 50 nM
Duration: LPS for 4 h, given about 3 days after siRNA transfection
Conditions: bacterial LPS (TLR4 ligand), 10 ng/ml
Measured: 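TNF firefly reporter luminescence divided by renilla, normalised to the plate median, then turned into a robust z-score for each replicate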
Scale: TNF reporter robust z-score: higher = stronger TNF reporter response to LPS
Hit rule: 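a well is active when its z-score exceeds 2.8 or falls below -1.5; control wells carry no call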

For ELF2, what does the deposit list?
TNF reporter robust z-score: 1.13

What did the screen give for ELF2?
TNF reporter robust z-score: 1.72

For ELF2, how do the results read?
TNF reporter robust z-score: 1.57

With ELF2, how do the results read?
TNF reporter robust z-score: 0.47

For TGIF2LX, how do the results read?
TNF reporter robust z-score: -0.49

With TGIF2LX, how do the results read?
TNF reporter robust z-score: 0.89

How did the screen score TGIF2LX?
TNF reporter robust z-score: -0.22

How did the screen score TGIF2LX?
TNF reporter robust z-score: -0.27

How did the screen score ATP11A?
TNF reporter robust z-score: 0.03

How did the screen score ATP11A?
TNF reporter robust z-score: 0.58

For ATP11A, what was measured?
TNF reporter robust z-score: -0.31

For ATP11A, how do the results read?
TNF reporter robust z-score: 1.29

With ZFPM1, what does the deposit list?
TNF reporter robust z-score: -1.07

With ZFPM1, how do the results read?
TNF reporter robust z-score: -0.5

With ZFPM1, how do the results read?
TNF reporter robust z-score: -0.88

With ZFPM1, what was measured?
TNF reporter robust z-score: -0.39

Which result is listed for MICA?
TNF reporter robust z-score: -0.06

Which result is listed for MICA?
TNF reporter robust z-score: -0.45

What did the screen give for MICA?
TNF reporter robust z-score: -0.49

With MICA, what was measured?
TNF reporter robust z-score: -0.18

With CCL2, what was measured?
TNF reporter robust z-score: -0.65

For CCL2, how do the results read?
TNF reporter robust z-score: -0.63

With CCL2, what was measured?
TNF reporter robust z-score: -0.69

Which result is listed for CCL2?
TNF reporter robust z-score: -0.75

What did the screen give for ADAM8?
TNF reporter robust z-score: 1.24

What did the screen give for ADAM8?
TNF reporter robust z-score: -0.2

For ADAM8, what does the deposit list?
TNF reporter robust z-score: -0.41

What did the screen give for ADAM8?
TNF reporter robust z-score: 0.5

What is on record for TTLL10?
TNF reporter robust z-score: -0.39

What did the screen give for TTLL10?
TNF reporter robust z-score: -0.24

What did the screen give for TTLL10?
TNF reporter robust z-score: -0.84

How did the screen score TTLL10?
TNF reporter robust z-score: 0.57

For RAB33A, what was measured?
TNF reporter robust z-score: -0.04

With RAB33A, what does the deposit list?
TNF reporter robust z-score: 0.22

For RAB33A, how do the results read?
TNF reporter robust z-score: 1.01

For ZNF222, what was measured?
TNF reporter robust z-score: 0.95

With ZNF222, what does the deposit list?
TNF reporter robust z-score: 1.05

For ZNF222, what was measured?
TNF reporter robust z-score: 1.24

What is on record for ZNF222?
TNF reporter robust z-score: 0.45

How did the screen score CTC1?
TNF reporter robust z-score: -1.21

For CTC1, what was measured?
TNF reporter robust z-score: 0.4

What is on record for CTC1?
TNF reporter robust z-score: 0.15

Which result is listed for CTC1?
TNF reporter robust z-score: 0.7

What is on record for TSPYL2?
TNF reporter robust z-score: 0.61

What did the screen give for TSPYL2?
TNF reporter robust z-score: 0.28

With TSPYL2, what does the deposit list?
TNF reporter robust z-score: 0.58

For TSPYL2, how do the results read?
TNF reporter robust z-score: 1.19
